These are yes or no findings as the source states them, for the method shown. In cells and extracts the contact can be indirect.
Molecular target: Wt PTEN (human wild type PTEN) (human), P60484
Experiment: co-IP; lysates of PTEN-overexpressed PC3 cells (50 mM Tris pH 7.5, 10% glycerol, 5 mM MgCl2, 150 mM NaCl, 0.2% NP-40) incubated with anti-PTEN (138G6) or control IgG overnight at 4 °C, protein G sepharose; MTHFD1 detected by immunoblot
Details: remark: other sources report otherwise

B1: methylenetetrahydrofolate dehydrogenase 1 (MTHFD1), P11586 1-935 (enzyme)
chain: MAPAEILNGKEISAQIRARLKNQVTQLKEQVPGFTPRLAILQVGNRDDSNLYINVKLKAAEEIGIKATHIKLPRTTTESEVMKYITSLNEDSTVHGFLVQLPLDSENSINTEEVINAIAPEKDVDGLTSINAGKLARGDLNDCFIPCTPKGCLELIKETGVPIAGRHAVVVGRSKIVGAPMHDLLLWNNATVTTCHSKTAHLDEEVNKGDILVVATGQPEMVKGEWIKPGAIVIDCGINYVPDDKKPNGRKVVGDVAYDEAKERASFITPVPGGVGPMTVAMLMQSTVESAKRFLEKFKPGKWMIQYNNLNLKTPVPSDIDISRSCKPKPIGKLAREIGLLSEEVELYGETKAKVLLSALERLKHRPDGKYVVVTGITPTPLGEGKSTTTIGLVQALGAHLYQNVFACVRQPSQGPTFGIKGGAAGGGYSQVIPMEEFNLHLTGDIHAITAANNLVAAAIDARIFHELTQTDKALFNRLVPSVNGVRRFSDIQIRRLKRLGIEKTDPTTLTDEEINRFARLDIDPETITWQRVLDTNDRFLRKITIGQAPTEKGHTRTAQFDISVASEIMAVLALTTSLEDMRERLGKMVVASSKKGEPVSAEDLGVSGALTVLMKDAIKPNLMQTLEGTPVFVHAGPFANIAHGNSSIIADRIALKLVGPEGFVVTEAGFGADIGMEKFFNIKCRYSGLCPHVVVLVATVRALKMHGGGPTVTAGLPLPKAYIQENLELVEKGFSNLKKQIENARMFGIPVVVAVNAFKTDTESELDLISRLSREHGAFDAVKCTHWAEGGKGALALAQAVQRAAQAPSSFQLLYDLKLPVEDKIRIIAQKIYGADDIELLPEAQHKAEVYTKQGFGNLPICMAKTHLSLSHNPEQKGVPTGFILPIRDIRASVGAGFLYPLVGTMSTMPGLPTRPCFYDIDLDPETEQVNGLF
With B1 the binding was “no binding”.
